The target of the test is retinitis pigmentosa GTPase regulator-interacting protein 1-like (Rpgrip1l) (mouse (endogenous in mouse embryonic fibroblasts)) (UniProt Q8CG73). The experiment in a line: proximity ligation; in situ PLA (Duolink, Detection Reagents Orange) on fixed, serum-starved mouse embryonic fibroblasts transiently transfected with IFT88-EYFP to mark cilia; endogenous proteins detected by primary antibodies; signal means proximity < 40 nm.

Amino acid sequences for entries named in this document (tags omitted).
UniProt Q8CG73: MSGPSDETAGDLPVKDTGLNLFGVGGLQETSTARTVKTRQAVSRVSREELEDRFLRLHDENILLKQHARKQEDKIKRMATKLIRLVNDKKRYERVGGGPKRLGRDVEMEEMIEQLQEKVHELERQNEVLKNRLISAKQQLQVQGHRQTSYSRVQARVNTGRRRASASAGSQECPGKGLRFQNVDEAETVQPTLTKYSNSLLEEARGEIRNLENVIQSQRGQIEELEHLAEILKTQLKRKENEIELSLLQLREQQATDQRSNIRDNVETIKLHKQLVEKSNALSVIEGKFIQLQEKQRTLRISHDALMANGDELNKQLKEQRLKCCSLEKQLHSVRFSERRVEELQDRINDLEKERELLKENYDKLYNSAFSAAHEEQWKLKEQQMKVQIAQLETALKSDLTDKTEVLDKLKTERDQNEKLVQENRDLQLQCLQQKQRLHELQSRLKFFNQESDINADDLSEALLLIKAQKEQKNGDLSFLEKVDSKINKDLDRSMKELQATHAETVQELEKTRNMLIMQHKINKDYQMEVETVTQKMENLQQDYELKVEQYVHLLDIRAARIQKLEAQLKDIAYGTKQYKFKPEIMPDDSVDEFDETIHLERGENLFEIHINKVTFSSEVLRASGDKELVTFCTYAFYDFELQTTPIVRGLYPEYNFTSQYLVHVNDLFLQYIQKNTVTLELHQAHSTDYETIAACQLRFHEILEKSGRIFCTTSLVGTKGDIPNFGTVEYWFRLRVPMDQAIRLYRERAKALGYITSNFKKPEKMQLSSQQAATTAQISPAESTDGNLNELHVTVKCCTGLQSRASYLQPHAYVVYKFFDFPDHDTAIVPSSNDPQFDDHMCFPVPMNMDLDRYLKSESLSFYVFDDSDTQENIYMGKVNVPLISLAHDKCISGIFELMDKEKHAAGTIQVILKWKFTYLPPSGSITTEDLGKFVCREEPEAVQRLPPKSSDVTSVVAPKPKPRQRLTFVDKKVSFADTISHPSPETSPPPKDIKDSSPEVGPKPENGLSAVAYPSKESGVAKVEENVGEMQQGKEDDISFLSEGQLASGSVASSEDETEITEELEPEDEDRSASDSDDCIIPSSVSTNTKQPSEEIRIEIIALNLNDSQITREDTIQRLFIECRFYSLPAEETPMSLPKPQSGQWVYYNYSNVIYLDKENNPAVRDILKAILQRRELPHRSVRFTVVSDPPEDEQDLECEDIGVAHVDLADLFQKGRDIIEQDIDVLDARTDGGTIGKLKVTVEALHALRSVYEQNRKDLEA

Results are given in words; binding and its absence hold for the method and conditions named. Binding seen in cells or lysates may run through a third protein. Some binding calls cover weakened binding; strength is not graded here.

B1: retinitis pigmentosa GTPase regulator-interacting protein 1 (Rpgrip1) (protein, UniProt Q9EPQ2 1-1331)
chain: MQHLLEYMPEDLPVRDTDSSPLLKGTSGKNVRAQPHLGRMNQKELNCRRLHLHEEPTLVKEPSPKQRDKNRRRRTNVQRSTTTQPDLRTLAVLQEPERRRRPWVSASPSPSAPPRAPVPGRKAHVQRLCPSTAVGSAQPRVHAGRRLPHIAGPNDRRSHTAPPAFKDYVADKNTRIEITREPSQLTHTMTTDSTHVEEIPRSPEKTSKVEKPEQRSSEECTQKAAELRASIKENVELIRLKKLLQERNTSLAATEAQLTRVQEAYEDLLQKNQGILDTAHNAFLSQVNELKAELSEESKKAVSLRTQLGDVSILQITLKEFQVRVEDLEKERKLLSDSYDRLLENMLDSSHQPLDSSHQPHWSTELTGKQLPPQVCPLLDQMGTALEETKVFRQATNKAAQDGKLKFQDTDILYQHEQEEESLQSTATVASSPEELCELAAQPTLLPQTDQRESSEPKAQDENDLSQVLSELQVSHAETTLELEKTRDMLLLQRKINMCYQEELEATLTKADRENRDHEEKLERLNHLLDFKNSRIKQLEGILRSHGLPTSEQLKDVAYGTLPPSLCLEPLAAHRGDDEVDMSLLHPSENLFELHVHQAFLTPAALTQAGDTQPTTFCTYSFYDFETHCTPLSTGPQPLYDFTSQYVVQADYLLLHYLQGTSVRLDLHQAMASEYHVLATGWISLDKVLGTVERVHGLATLAGAGGEDLGVLEYWMRLCLPLKPSLQACNKRKKAQAYLSVSVLGARKVQSNESRSETWAPQNELRVEITRCCGLRSRRLGRQPSPYVMYRFFTFPDHDTIIIPASSNPYFKDQALFPVLVTSDLDQYLRREALSVYVFDDEDPEPGSYLGRAQVPLLPLAQNKSIKGDFNLTDSGEKSNGSIKVQLDWKSHYLAPEGFQMSEAEKPEGEEKEEEGGEEEVKEEEVEEEEEEEEEEEEVKEEKEEEEEEEREEEEEKEEEKEEEEEEDEKEEEEEEEEEEEEEEEDENKDVLEASFTEEWVPFFSQDQIASTEIPIEAGQYPEKRKPPVIAEKKEREHQVASYSRRKHSKKPGVQDKNRMEYLSCNILNGNTQQMHYTEWKFSGLKKAEDGGLKAQDKREEPPSPRSALRQEHPSHPRNAFSLADQESCEQASEVSETQTTDSDDIIVTPQAQTVPKADSEKMCIEIVSLAFCPEADVMSDETIQQVYVEYKFCDLPLSETETPMSLRKPRAGEEIHFHFSKVIDLDPVEHQSRRQFLFAMLHAQDSDEGRFKFTVVSDPLDEEKKECQDIGYAYLELWQIFQSGKDILEQELEIVSPRNQAIQIGRLKVSLQAAAALHGIYKEMTEDLFS
As to B1, the binding result is on record as “binds”.

The values are drawn from paper PMC12532946.
